# Data source: PubChem BioAssay AID504764 (Drosophila RNAi Screening Center, 2011)
# Purpose: 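Knock-downs that raise or lower a Notch target reporter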 (primary screen)
# System: Drosophila Kc167 cells
# Reagents: long dsRNA against Drosophila genes
# Time to read-out: about 5 days (4 days dsRNA, then 24 h after transfection)
# Treatment: transfection of constitutively active membrane-tethered Notch lacking the extracellular domain, read 24 h later
# Measured: 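Light from a Notch-responsive E(spl)m3 luciferase reporter under active Notch, with control-promoter and no-Notch reporter wells to normalise; raw counts from paired wells a and b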
# Direction: induced reporter light, run 1, well a and induced reporter light, run 1, well b: higher = more light from the Notch target reporter with active Notch; control promoter light, run 1, well a and control promoter light, run 1, well b: higher = more light from the viral control promoter (cell number, transfection, viability); uninduced reporter light, run 1, well a: higher = more light from the Notch target reporter without active Notch
# Call rule: 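Wells with low control signal or poorly matching duplicates excluded; duplicates averaged; per source plate, z beyond ±2 for induced/control log2 ratio or beyond ±1.8 for induced/uninduced marks a hit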
# Calls: active = modifier hit (raised or lowered Notch signal); inactive = not a hit
# In all, the deposit lists about 22,000 reagents; this is an unselected part of those that have a named target and a result. Over the whole deposit, 403 (1.9%) got an active call. 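Unnormalised raw counts per well; ratio z-scores behind the hit calls and whether each hit raises or lowers signal are not deposited.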 No sequences are given here. Not given: the amount of reagent.
gene,amplicon,"induced reporter light, run 1, well a","induced reporter light, run 1, well b","control promoter light, run 1, well a","control promoter light, run 1, well b","uninduced reporter light, run 1, well a",Outcome
Eaf,DRSC05050,19205,19195,18090,22725,3045,inactive
Eaf,DRSC06052,2.55e5,2.24e5,1.78e5,2.25e5,16510,inactive
CG33346,DRSC22898,,,,,,inactive
CG13516,DRSC04159,2.31e5,1.71e5,2.00e5,1.46e5,11515,inactive
dl,DRSC03520,1.02e5,1.07e5,70235,69440,10815,inactive
dl,DRSC03521,1.48e5,1.63e5,1.74e5,1.76e5,12425,inactive
RNaseZ,DRSC06845,1.74e5,1.11e5,1.94e5,1.89e5,14800,inactive
vsg,DRSC10219,1.22e5,1.12e5,1.40e5,1.11e5,9928,inactive
hppy,DRSC07014,93760,93325,93535,1.23e5,7830,inactive
hppy,DRSC07015,63430,86595,89950,76190,6460,inactive
hppy,DRSC07016,68050,80570,1.10e5,1.04e5,5985,inactive
kairos,DRSC19972,91150,77675,65025,41770,7235,inactive
Ate1,DRSC05925,1.22e5,97655,2.44e5,2.63e5,8790,inactive
Sgs5bis,DRSC16263,2.08e5,1.94e5,2.13e5,2.23e5,17580,inactive
CG3777,DRSC18489,1.89e5,1.30e5,2.91e5,3.29e5,13375,inactive
CG7916,DRSC01901,1.34e5,1.38e5,1.67e5,1.82e5,10900,inactive
Bap55,DRSC07000,43225,50255,1.16e5,1.21e5,5975,active
Arpc4,DRSC02917,88900,79060,89190,63595,4235,inactive
dgt5,DRSC07280,1.89e5,1.68e5,1.59e5,1.77e5,16885,inactive
CG6938,DRSC10752,1.74e5,1.43e5,2.51e5,2.65e5,9575,inactive
Lamtor3,DRSC02815,1.52e5,1.40e5,1.89e5,2.05e5,12382,inactive
vret,DRSC15640,1.67e5,1.87e5,2.28e5,2.21e5,16880,inactive
Unr,DRSC10761,61195,47740,38595,10365,3690,inactive
nahoda,DRSC03954,64180,67440,84105,75060,7865,inactive
nahoda,DRSC04126,3.06e5,2.96e5,2.65e5,2.87e5,20470,inactive
bt,DRSC17129,1.57e5,1.77e5,2.18e5,2.16e5,14300,inactive
bt,DRSC17171,1.80e5,2.07e5,2.62e5,2.48e5,13935,inactive
bma,DRSC09896,2.17e5,1.65e5,2.45e5,1.63e5,12070,inactive
bma,DRSC10164,1.08e5,92210,1.57e5,96890,9710,inactive
Sodh2,DRSC16865,63845,76695,83560,79645,4835,inactive
ppk14,DRSC03238,1.42e5,1.66e5,1.71e5,1.82e5,9335,inactive
l(2)k09913,DRSC04699,1.66e5,1.55e5,1.18e5,1.23e5,11845,inactive
beat-IIIc,DRSC02438,1.69e5,1.74e5,1.79e5,2.05e5,14965,inactive
beat-IIIc,DRSC02949,1.14e5,1.42e5,1.34e5,1.49e5,9940,inactive

Records above called active:
gene,amplicon,"induced reporter light, run 1, well a","induced reporter light, run 1, well b","control promoter light, run 1, well a","control promoter light, run 1, well b","uninduced reporter light, run 1, well a",Outcome
Bap55,DRSC07000,43225,50255,1.16e5,1.21e5,5975,active
